According to the supplement of paper PMC4683952:
This is one part of the list. Rule as the data show it: active = 2 or more and inactive = the rest. Repeats in this data set agree poorly, so a single value says little.

system: Lgr5 (MarsCy1-Lgr5-EGFP, U2OS); test: cell-surface Lgr5 expression (SCi1 fluorescence, background-subtracted) relative to WT DMSO (fold of DMSO control); higher = more Lgr5 at the plasma membrane; conditions: U2OS MarsCy1-Lgr5-EGFP stable; treatment time: overnight; library: ActiProbe-5K (TimTec); 25 µM

| Compound | cell-surface Lgr5 expression |
| --- | --- |
| CCN1CCN(c2cc(C)nc3nncn23)CC1 | inactive: 1.15 |
| O=[N+]([O-])c1ccc(NCCNc2ccc([N+](=O)[O-])c3cccnc23)cc1 | active: 4.02 |
| NC1(Cc2ccc(Cl)cc2)CC1 | inactive: 1.16 |
| CN1CCc2[nH]c(=S)c(C#N)c(-c3ccsc3)c2C1 | inactive: 0.977 |
| Nc1c(Cl)c(Cl)nc(C(=O)O)c1Cl | inactive: 1.24 |
| O=[N+]([O-])c1ccc(Cl)cc1N/N=C1\CN2CCC1CC2 | inactive: 1.08 |
| N#C/C=C1\CN2CCC1CC2 | inactive: 1.16 |
| CN(C)C(=S)SSC(=S)N(C)C | inactive: 0.834 |
| C#CC1(O)CCC2C3CC=C4CC(OC(C)=O)CCC4(C)C3CCC21C (centres undefined) | inactive: 1.88 |
| O=S1(=O)c2ccccc2-c2ccccc21 | inactive: 1.12 |
| Cc1nn(C)cc1CN1CCNCC1 | inactive: 1.25 |
| Cc1cc(C=O)c(C)n1C1CC1 | inactive: 1.29 |
| c1(c(/C=C(/C#N)C#N)cc(s1)CC)SCC | inactive: 1.36 |
| N=C(Nc1ccccc1)Nc1ccccc1 | inactive: 1.04 |
| COC(=O)[C@@H]1OC(Br)[C@@H](OC(C)=O)[C@H](OC(C)=O)[C@H]1OC(C)=O (some centres undefined) | inactive: 1.05 |
| Cn1c(Sc2nnc(N)[nH]2)nnc1[N+](=O)[O-] | inactive: 1.18 |
| Cc1ccc(C2Oc3ccccc3C3CN(C)OC32[N+](=O)[O-])cc1 (centres undefined) | inactive: 0.946 |
| O=[N+]([O-])c1cn(Cn2cc([N+](=O)[O-])nc2Cl)c(Cl)n1 | inactive: 1.03 |
| O=C1CCC(=O)N1C1CCCN2CCCCC12 (centres undefined) | inactive: 1.29 |
| CC(=O)Nc1nonc1N | inactive: 1.03 |
| COC(=O)c1n[nH]c([N+](=O)[O-])c1[N+](=O)[O-] | inactive: 1.38 |
| CC(C)c1ccc(C2NCc3ccccc3-n3cccc32)cc1 (centres undefined) | inactive: 0.766 |
| CC(C)C/C(=N\O)c1c[nH]c2ccccc12 | inactive: 0.855 |

| Compound | cell-surface Lgr5 expression |
| --- | --- |
| N=C(NN)c1nonc1N | inactive: 1.32 |
| O=C(O)CCn1cnnn1 | inactive: 1.15 |
| Cc1c(C(=O)NN)nnn1-c1nonc1N | inactive: 1.15 |
| O=[N+]([O-])c1ccc(N2CCNCC2)c2cccnc12 | inactive: 1.07 |
| Cc1n[nH]c2c1C1(CCN(C)CC1)C(C#N)=C(N)O2 | inactive: 1.21 |
| COC(=O)Cn1ncnn1 | inactive: 1.09 |
| O=[N+]([O-])c1ccc(Cl)c(Cl)c1Cl | inactive: 1.47 |
| CC(=O)c1cc(CCl)cs1 | inactive: 1.24 |
| O=[N+]([O-])c1cc(-c2cc([N+](=O)[O-])[nH]n2)n[nH]1 | inactive: 1.53 |
| NC(=O)Cn1nc([N+](=O)[O-])nc1Br | inactive: 1.24 |
| CCOC(=O)c1c(NC(=O)C2C(C)(C)C2(C)C)sc2c1CCC2 | inactive: 1.11 |
| c1cncc(C2Nc3cccc4cccc(c34)N2)c1 | inactive: 0.954 |
| CN1CCN(c2ccc([N+](=O)[O-])c(N3CCN(C)CC3)c2)CC1 | inactive: 1.16 |
| NCCc1csc2c1CCCC2 | inactive: 1.29 |
| COC(=O)Cn1cnc([N+](=O)[O-])n1 | inactive: 1.08 |
| c1(c(sc(c1)C)C)/C=C(/C#N)C#N | inactive: 1.2 |
| Nc1nnnn1CC(=O)O | inactive: 1.28 |
| O=Cc1cc(CCl)cs1 | inactive: 1.21 |
| O=[N+]([O-])c1c(Br)sc(Br)c1[N+](=O)[O-] | inactive: 1.54 |
| Nc1nc2ccccc2c(-c2cccc3ccccc23)c1CN1CC1 | inactive: 0.515 |
| NC(=O)c1no[n+]([O-])c1C(N)=O | inactive: 1.38 |
| CC[n+]1ccc(-c2cc[n+](CC)cc2)cc1.[Br-].[Br-] | inactive: 1.16 |
| Nc1cc(Br)ccc1O | inactive: 0.692 |

| Compound | cell-surface Lgr5 expression |
| --- | --- |
| CCCCCCCCC1CCNC1=O (centres undefined) | inactive: 1.14 |
| c1ccc2c(c1)CCc1c-2[nH]c2ccccc12 | inactive: 1.03 |
| CCCn1nc(C)c(C=O)c1C | inactive: 1.19 |
| c1ccc2c(c1)ccc1cccnc12 | inactive: 1.1 |
| C(/C#N)(C#N)=C\c1ccc(/C=C(\C#N)C#N)cc1 | active: 2.39 |
| CCCC[n+]1[cH-]/c(=N\C(=O)OC)on1 | inactive: 1.18 |
| CC(N)Cn1cnc2c(cnn2C)c1=O (centres undefined) | inactive: 1.15 |
| CN1CCC(O)(c2ccco2)C(C(O)c2ccco2)C1 (centres undefined) | inactive: 1.21 |
| O=[N+]([O-])c1ccc(O/N=C2\CN3CCC2CC3)cc1 | inactive: 0.978 |
| CN1[C@@H]2CC[C@H]1C[C@@H](O)C2 | inactive: 0.986 |
| CS(=O)(=O)c1nc([N+](=O)[O-])n[nH]1 | inactive: 0.995 |
| CC(=O)[C@@H]1[C@@H]2NC(=S)N[C@@]1(C)Oc1ccccc12 | inactive: 0.978 |
| CC(=O)[C@@H]1[C@@H]2NC(=O)N[C@@]1(C)Oc1ccccc12 | inactive: 1.1 |
| O=[N+]([O-])c1nnc(Br)[nH]1 | inactive: 1.44 |
| COc1cccc(N2CCNCC2)n1 | inactive: 1.12 |
| O=C1NCCCC12CCCNC2=O | inactive: 0.842 |
| Cc1cc(C=O)c(C)n1C1CCCC1 | inactive: 1.22 |
| Nc1c([N+](=O)[O-])cc2[nH]c(=O)[nH]c2c1[N+](=O)[O-] | inactive: 1.1 |
| c1(oc(C)cc1)/C=C(\C#N)C#N | inactive: 0.858 |
| CCN1CCc2[nH]c(=S)c(C#N)cc2C1 | inactive: 1.18 |
| CN1CCc2[nH]c(=S)c(C#N)c(-c3cccs3)c2C1 | inactive: 0.904 |
| CC(N)Cn1nc(C(F)(F)F)cc1C1CC1 (centres undefined) | inactive: 1.1 |
| Cc1c(/N=N\c2no[n+]([O-])c2C)no[n+]1[O-] | inactive: 1.45 |

| Compound | cell-surface Lgr5 expression |
| --- | --- |
| CN1CCC(O)(c2ccco2)C(C(=O)Cc2ccco2)C1 (centres undefined) | inactive: 1.13 |
| C1(N(C(=O)C(/C(N1C)=O)=C\NCc1occc1)C)=S | inactive: 1.02 |
| COc1cc2c(cc1OC)-c1c(OC)c(OC)c(Br)c3c1C(C2)N(C)CC3 (centres undefined) | inactive: 0.755 |
| NC(c1c[nH]c2ccccc12)C(F)(F)F (centres undefined) | inactive: 1.06 |
| OC1(CCl)CN2CCC1CC2 (centres undefined) | inactive: 1.33 |
| O=C(O)c1[nH]nc(-c2n[nH]c(C(=O)O)c2[N+](=O)[O-])c1[N+](=O)[O-] | inactive: 1.41 |
| CCOc1nc(NC(C)C)nc(N2CC3CC(C2)c2cccc(=O)n2C3)n1 (centres undefined) | inactive: 1.12 |
| Nc1nonc1/N=[N+](/[O-])c1nonc1N | inactive: 1.08 |
| N=c1c(N=O)c(O)[nH]c(=O)n1Cc1ccco1 | inactive: 1.17 |
| O=[N+]([O-])c1cc(F)c(N2CCCC2)cc1N1CCNCC1 | inactive: 1.3 |
| O=C1CCN[C@@H]2CCCC[C@@H]12 | inactive: 1.03 |
| CN1CCN(c2ccc([N+](=O)[O-])c(N3CCCC3)c2)CC1 | inactive: 1.04 |
| NC(=O)c1n[nH]c([N+](=O)[O-])c1[N+](=O)[O-] | inactive: 1.71 |
| c1([N+]([O-])=O)sc(/C=C(\C#N)C#N)cc1 | inactive: 0.855 |
| CCNc1nc(Cl)nc(NCC)n1 | inactive: 1.2 |
| CC(=O)OC1C2CCC1C(N1CCCCC1)CC2.Cl (centres undefined) | inactive: 1.2 |
| COCc1c(C(=O)NN)nnn1-c1nonc1N | inactive: 1.2 |
| Nc1ccc([N+](=O)[O-])c2nonc12 | inactive: 1.05 |
| O=[N+]([O-])/C=C/c1ccc2c(c1)OCO2 | inactive: 0.483 |
| Fc1nc(N2CCNCC2)c(F)c(Sc2ccc(Cl)cc2)c1F | inactive: 1.16 |
| CN(C)c1ccc([N+](=O)[O-])c(C(F)(F)F)c1 | inactive: 1.18 |
| c1(/C=C(/C#N)C#N)c(cc(c(c1)Br)OC)OC | inactive: 0.689 |
| c1cc(C2N3CCCN23)ccn1 (centres undefined) | inactive: 0.999 |

| Compound | cell-surface Lgr5 expression |
| --- | --- |
| CCNC1(c2cccs2)CCCCC1 | inactive: 1.46 |
| c1(sc(CC)cc1)/C=C(/C#N)C#N | inactive: 1.25 |
| Cc1noc(C2CCNCC2)n1 | inactive: 1.1 |
| N#CC[N+]12CCN(CC1)CC2.[Cl-] | inactive: 1.06 |
| CCc1[nH]nc2c1C1(CN3CCC1CC3)C(C#N)=C(N)O2 (centres undefined) | inactive: 1.05 |
| Nc1c(Br)cc([N+](=O)[O-])cc1Br | inactive: 1.16 |
| O=[N+]([O-])c1cc2nonc2c2nn[nH]c12 | inactive: 1.04 |
| Cc1ccc[n+]([C-]([N+](=O)[O-])[N+](=O)[O-])c1 | inactive: 1.29 |
| CN1CCN(c2ccc(F)cc2N)CC1 | inactive: 1.13 |
| Cc1nc2c(o1)NC(N)=C(C#N)C21CCN(C)CC1 | inactive: 1.22 |
| NCCc1c[nH]c2ccc(F)cc12 | inactive: 1.43 |
| ClCc1ccc2ccccc2n1 | inactive: 1.21 |
| CNc1ccc([N+](=O)[O-])cc1[N+](=O)[O-] | inactive: 1.43 |
| Nc1c(Cl)cc([N+](=O)[O-])cc1Cl | inactive: 1.32 |
| Cc1ccc(NC2=NCC(C)S2)cc1C (centres undefined) | inactive: 1.32 |
| COC(=O)c1ccc(CCl)s1 | inactive: 1.2 |
| CN1CCC2(CC1)OC1CCCCC1c1sccc12 (centres undefined) | inactive: 1.11 |
| CN1CCN(c2ccc([N+](=O)[O-])c(NC3CC3)c2)CC1 | inactive: 0.863 |
| CN(C)c1ccc2c(C(F)(F)F)cc(=O)oc2c1 | inactive: 1.05 |
| c1([N+]([O-])=O)c(sc(c1)/C=C(\C#N)C#N)C | inactive: 1.02 |
| Nc1nc2nonc2nc1N | inactive: 0.787 |
| CC(C)OCCCNC1CCN(C)CC1 | inactive: 1.09 |

No new results follow: 31 of the compounds above.

| Compound | cell-surface Lgr5 expression |
| --- | --- |
| CCNc1nc(Cl)nc(NCC)n1 | inactive: 1.2 |
| CC(=O)OC1C2CCC1C(N1CCCCC1)CC2.Cl (centres undefined) | inactive: 1.2 |
| COCc1c(C(=O)NN)nnn1-c1nonc1N | inactive: 1.2 |
| Nc1ccc([N+](=O)[O-])c2nonc12 | inactive: 1.05 |
| O=[N+]([O-])/C=C/c1ccc2c(c1)OCO2 | inactive: 0.483 |
| Fc1nc(N2CCNCC2)c(F)c(Sc2ccc(Cl)cc2)c1F | inactive: 1.16 |
| CN(C)c1ccc([N+](=O)[O-])c(C(F)(F)F)c1 | inactive: 1.18 |
| c1(/C=C(/C#N)C#N)c(cc(c(c1)Br)OC)OC | inactive: 0.689 |
| c1cc(C2N3CCCN23)ccn1 (centres undefined) | inactive: 0.999 |
| CCNC1(c2cccs2)CCCCC1 | inactive: 1.46 |
| c1(sc(CC)cc1)/C=C(/C#N)C#N | inactive: 1.25 |
| Cc1noc(C2CCNCC2)n1 | inactive: 1.1 |
| N#CC[N+]12CCN(CC1)CC2.[Cl-] | inactive: 1.06 |
| CCc1[nH]nc2c1C1(CN3CCC1CC3)C(C#N)=C(N)O2 (centres undefined) | inactive: 1.05 |
| Nc1c(Br)cc([N+](=O)[O-])cc1Br | inactive: 1.16 |
| O=[N+]([O-])c1cc2nonc2c2nn[nH]c12 | inactive: 1.04 |
| Cc1ccc[n+]([C-]([N+](=O)[O-])[N+](=O)[O-])c1 | inactive: 1.29 |
| CN1CCN(c2ccc(F)cc2N)CC1 | inactive: 1.13 |
| Cc1nc2c(o1)NC(N)=C(C#N)C21CCN(C)CC1 | inactive: 1.22 |
| NCCc1c[nH]c2ccc(F)cc12 | inactive: 1.43 |
| ClCc1ccc2ccccc2n1 | inactive: 1.21 |
| CNc1ccc([N+](=O)[O-])cc1[N+](=O)[O-] | inactive: 1.43 |
| Nc1c(Cl)cc([N+](=O)[O-])cc1Cl | inactive: 1.32 |
| Cc1ccc(NC2=NCC(C)S2)cc1C (centres undefined) | inactive: 1.32 |
| COC(=O)c1ccc(CCl)s1 | inactive: 1.2 |
| CN1CCC2(CC1)OC1CCCCC1c1sccc12 (centres undefined) | inactive: 1.11 |
| CN1CCN(c2ccc([N+](=O)[O-])c(NC3CC3)c2)CC1 | inactive: 0.863 |
| CN(C)c1ccc2c(C(F)(F)F)cc(=O)oc2c1 | inactive: 1.05 |
| c1([N+]([O-])=O)c(sc(c1)/C=C(\C#N)C#N)C | inactive: 1.02 |
| Nc1nc2nonc2nc1N | inactive: 0.787 |
| CC(C)OCCCNC1CCN(C)CC1 | inactive: 1.09 |
